Laboratory results published in article PMC4609755.
Results are given in words; binding and its absence hold for the method and conditions named. For some assays here: Binding seen in cells or lysates may run through a third protein. Some entries that bind do so weakly or less than the wild type.

Amino acid sequences for entries named in this document (tags omitted). Residues count along the entry.
UniProt Q9WV18, residues 20-960: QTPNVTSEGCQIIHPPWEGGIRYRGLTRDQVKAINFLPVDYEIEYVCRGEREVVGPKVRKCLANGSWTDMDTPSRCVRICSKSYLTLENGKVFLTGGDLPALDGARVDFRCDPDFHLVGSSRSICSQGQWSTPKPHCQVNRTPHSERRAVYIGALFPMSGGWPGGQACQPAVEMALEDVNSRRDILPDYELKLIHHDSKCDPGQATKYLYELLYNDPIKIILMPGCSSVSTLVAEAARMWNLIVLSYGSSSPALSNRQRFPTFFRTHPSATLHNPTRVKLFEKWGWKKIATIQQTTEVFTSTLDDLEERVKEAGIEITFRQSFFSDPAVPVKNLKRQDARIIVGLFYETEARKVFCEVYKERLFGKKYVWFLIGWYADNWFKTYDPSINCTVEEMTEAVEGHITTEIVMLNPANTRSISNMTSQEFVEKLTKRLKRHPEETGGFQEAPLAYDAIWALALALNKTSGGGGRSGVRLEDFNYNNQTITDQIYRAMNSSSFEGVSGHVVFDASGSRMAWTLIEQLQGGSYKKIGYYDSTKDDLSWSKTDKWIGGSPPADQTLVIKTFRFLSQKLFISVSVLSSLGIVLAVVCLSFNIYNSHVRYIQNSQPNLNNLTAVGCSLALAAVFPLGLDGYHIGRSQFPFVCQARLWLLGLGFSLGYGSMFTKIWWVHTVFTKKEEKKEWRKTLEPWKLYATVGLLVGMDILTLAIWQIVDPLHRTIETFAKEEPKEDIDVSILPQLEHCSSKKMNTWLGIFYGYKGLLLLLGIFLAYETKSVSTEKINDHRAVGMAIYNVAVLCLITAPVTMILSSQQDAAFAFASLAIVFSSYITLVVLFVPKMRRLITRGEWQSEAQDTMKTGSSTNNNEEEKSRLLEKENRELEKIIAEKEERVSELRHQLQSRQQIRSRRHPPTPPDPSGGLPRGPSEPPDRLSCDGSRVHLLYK

Tests used:
[1] = target: GABAB1 receptor subunit (mouse (endogenous in C57BL/6J hippocampus)) (UniProt Q9WV18); assay: native gel or EMSA; antibody shift assay: membrane preparations pre-incubated 1 h at 4°C with anti-GABAB1 or anti-GABAB2 antibody, BN-PAGE then SDS-PAGE and Western blotting
[2] = target: GABAB1 receptor subunit (mouse (endogenous in C57BL/6J hippocampus)) (UniProt Q9WV18); assay: proximity ligation; in situ PLA on fixed 30 μm mouse brain slices (hippocampus) with mouse anti-GABAB1 and rabbit anti-GABAB2 primary antibodies; negative control with no primary antibody

B1: GABAB2 receptor subunit (receptor, UniProt Q80T41 41-940)
chain: WARGAPRPPPSSPPLSIMGLMPLTKEVAKGSIGRGVLPAVELAIEQIRNESLLRPYFLDLRLYDTECDNAKGLKAFYDAIKYGPNHLMVFGGVCPSVTSIIAESLQGWNLVQLSFAATTPVLADKKKYPYFFRTVPSDNAVNPAILKLLKHFRWRRVGTLTQDVQRFSEVRNDLTGVLYGEDIEISDTESFSNDPCTSVKKLKGNDVRIILGQFDQNMAAKVFCCAFEESMFGSKYQWIIPGWYEPAWWEQVHVEANSSRCLRRSLLAAMEGYIGVDFEPLSSKQIKTISGKTPQQYEREYNSKRSGVGPSKFHGYAYDGIWVIAKTLQRAMETLHASSRHQRIQDFNYTDHTLGRIILNAMNETNFFGVTGQVVFRNGERMGTIKFTQFQDSREVKVGEYNAVADTLEIINDTIRFQGSEPPKDKTIILEQLRKISLPLYSILSALTILGMIMASAFLFFNIKNRNQKLIKMSSPYMNNLIILGGMLSYASIFLFGLDGSFVSEKTFETLCTVRTWILTVGYTTAFGAMFAKTWRVHAIFKNVKMKKKIIKDQKLLVIVGGMLLIDLCILICWQAVDPLRRTVERYSMEPDPAGRDISIRPLLEHCENTHMTIWLGIVYAYKGLLMLFGCFLAWETRNVSIPALNDSKYIGMSVYNVGIMCIIGAAVSFLTRDQPNVQFCIVALVIIFCSTITLCLVFVPKLITLRTNPDAATQNRRFQFTQNQKKEDSKTSTSVTSVNQASTSRLEGLQSENHRLRMKITELDKDLEEVTMQLQDTPEKTTYIKQNHYQELNDILSLGNFTESTDGGKAILKNHLDQNPQLQWNTTEPSRTCKDPIEDINSPEHIQRRLSLQLPILHHAYLPSIGGVDASCVSPCVSPTASPRHRHVPPSFRVMVSGL
B1 was tested, and the binding [1] was “binds” and the binding [2] was “binds”.
